Laboratory results: patent US20230322958A1 (Genentech, published 2023)
No constants are given. Whether binding was seen depends on the method and setting. Some results given as binding are weak or reduced against the parent protein; the word gives no strength.

T1: huNotch2-EGF6-10 (human, UniProt Q04721 219-418)
T1 construct: also called human Notch2 EGF6-10
T1 sequence: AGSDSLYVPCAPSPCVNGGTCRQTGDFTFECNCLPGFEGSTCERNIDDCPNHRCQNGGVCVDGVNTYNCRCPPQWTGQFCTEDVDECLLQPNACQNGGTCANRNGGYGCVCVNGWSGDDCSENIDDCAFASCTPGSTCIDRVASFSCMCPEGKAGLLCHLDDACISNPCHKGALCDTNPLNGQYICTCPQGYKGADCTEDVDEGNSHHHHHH


Key:
huNotch2-EGF6-10 = target: T1, huNotch2-EGF6-10; assay: SPR BIAcore
[1] = target: human Notch2 (construct not stated) (human) (UniProt Q04721); assay: array SPR imaging epitope binning; antibody amine-coupled to the chip, 50 nM human Notch2 injected, then second antibody at 10 µg/ml, 25 °C

Binder | binding (huNotch2-EGF6-10) | binding [1]
hu1B2.v4L7 (antibody, V domains shown) VH: EVQLVESGGGLVQPGGSLKLSCAVSGFTFSDFYMEWIRQASGKGLEWIAAQRNKANDFSIVYSASVKDRFTISRDTSKSTLYLQMNSLKTEDTAVYYCSRDGGRLALDAWGQGTLVTVSS VL: DIQMTQSPSSVSASVGDRVTITCQTSEDIYSGLAWYQQKPGKSPKLLIYGASRLQDGVPSRFSGSGSGTDYTLTISSLQPEDFATYYCQQGFKYPLTFGGGTKVEIK | binds | 
hu1B2.v8L7 (antibody, V domains shown) VH: EVQLVESGGGLVQPGGSLKLSCAVSGFTFSDFYMEWIRQASGKGLEWIAAQRNKANDFSIVYSASVKDRFTISRDTSKSTLYLQMNSLKTEDTAVYYCSRDGGKLALDAWGQGTLVTVSS VL: DIQMTQSPSSVSASVGDRVTITCQTSEDIYSGLAWYQQKPGKSPKLLIYGASRLQDGVPSRFSGSGSGTDYTLTISSLQPEDFATYYCQQGFKYPLTFGGGTKVEIK | binds | 
hu1B2.v9L7 (antibody, V domains shown) VH: EVQLVESGGGLVQPGGSLKLSCAVSGFTFSDFYMEWIRQASGKGLEWIAAQRNKANDFSIVYSASVKDRFTISRDTSKSTLYLQMNSLKTEDTAVYYCSRDGGKWGLDAWGQGTLVTVSS VL: DIQMTQSPSSVSASVGDRVTITCQTSEDIYSGLAWYQQKPGKSPKLLIYGASRLQDGVPSRFSGSGSGTDYTLTISSLQPEDFATYYCQQGFKYPLTFGGGTKVEIK | binds | 

The next lines start with the values.

binding (huNotch2-EGF6-10) | binding [1] | Binder
 | binds | rat.3107 (rat/human chimeric anti-Notch2 antibody 3107) (antibody, V domains shown) VH: QVQLQQSGAELAKSGSSVKISCKASGYTFSNYVIHWIKQTTGQAPEWTGYIIPGSGGTKFNEKFKGKATLTVDKSSTTAYMQLSSLTPVDTAVYYCARDGAGSFTYWGQGTLVTVSS VL: DVLMTQTPVSLPVSLGGQVSISCRSSQSLVHSDGNTYLHWFLQKPGQSPQLLIYRISNRFSGVPDRFSGSGSGTDFTLKISRVEPEDLGVYYCLQSTHFPDTFGGGTKVEIK
 | binds | rat.1B2 (rat/human chimeric anti-Notch2 antibody 1B2) (antibody, V domains shown, also called 1B2 Chimeric; chimeric 1B2) VH: EVKLVDYGGGLVQPGASLRLSCEVSGFTFSDFYMEWIRQAPGKGLEWIAASRNKANNFSIVYSASVKDRFTISRDTYKSILYLQMSTLKPEDTAVYYCSRDSGRWGLDAWGQGTSVIVSS VL: DIQMTQSPASLSASLGETVTIQCQTSEDIYSGLAWYHQKPGKSPQLLIYGASRLQDGVPSRFTGSGSGTQYSLKISSMQTEDEGVYFCQQGFKYPLTFGSGTKLEIK
